Data as given in PubChem BioAssay AID1259254 (NCATS, 2017)
Test: 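Gene knock-downs that lead to re-replication, shown by excess G2 DNA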 (primary screen). Cells: human HCT116 colorectal cancer cells. Reagents: single siRNA against human genes. Timing: 3 days. Read-out: 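Imaged Hoechst DNA stain sorts each cell into a cycle phase by DNA amount; per plate, G2 fraction set to 0% for non-targeting and 100% for GMNN siRNA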. Direction: G2 robust z-score and G2 cells, % of GMNN control: higher = more G2 cells, more excess DNA replication. Call rule: 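An siRNA counts as active if its G2 robust z-score lies at least 5 MADs above the screen median; here such calls match roughly 38% of GMNN control or more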.
This is a random part of about 59,000 reagents tested. About 1,550 of them (2.6%) were called active. 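G2 share is only a proxy for re-replication; each gene was hit by three separate siRNAs, and active genes were retested.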 Unmarked entries are inactive. Not all columns of the deposit are shown. Reagent sequences are not shown. Not stated in the record: the amount of reagent.

BRME1 [SID160748748] showed G2 robust z-score -0.763; G2 cells, % of GMNN control -2.4.
For BRME1 [SID160748749] the deposit lists G2 robust z-score -0.669; G2 cells, % of GMNN control -1.74.
BRME1 [SID160748750] gave G2 robust z-score -0.598; G2 cells, % of GMNN control -1.24.
Depletion of SPEN [SID160735033] gave: G2 robust z-score -0.666; G2 cells, % of GMNN control -1.72.
SPEN [SID160735042] gave G2 robust z-score -0.284; G2 cells, % of GMNN control 0.97.
For SPEN [SID160735053], the values are G2 robust z-score -1.2; G2 cells, % of GMNN control -5.46.
SSX1 [SID160717410] showed G2 robust z-score -0.129; G2 cells, % of GMNN control 2.06.
SSX1 [SID160731800] gave G2 robust z-score 0.294; G2 cells, % of GMNN control 5.03.
After knock-down of SSX1 [SID160731801], the record shows G2 robust z-score 4.75; G2 cells, % of GMNN control 36.4.
Knock-down of LRFN4 [SID160724531] resulted in: G2 robust z-score 0.247; G2 cells, % of GMNN control 4.71.
Knock-down of LRFN4 [SID160731904] came out at: G2 robust z-score 0.0359; G2 cells, % of GMNN control 3.22.
Against LRFN4 [SID160748450], the values are G2 robust z-score -1.02; G2 cells, % of GMNN control -4.23.

Laid out differently: results already given
{"gene knocked down":"BRME1","PubChem SID":"SID160748748","G2 robust z-score":-0.763,"G2 cells, % of GMNN control":-2.4}
{"gene knocked down":"BRME1","PubChem SID":"SID160748749","G2 robust z-score":-0.669,"G2 cells, % of GMNN control":-1.74}

The list goes on:
AFG2A [SID160760203] showed G2 robust z-score 0.109; G2 cells, % of GMNN control 3.73.
AFG2A [SID160760204] scored G2 robust z-score -0.782; G2 cells, % of GMNN control -2.54.
After knock-down of AFG2A [SID160760205] the results were G2 robust z-score -0.167; G2 cells, % of GMNN control 1.79.
Against UBE2V1 [SID160718548] the deposit lists G2 robust z-score 2.35; G2 cells, % of GMNN control 19.5.
Knock-down of UBE2V1 [SID160718551] came out at: G2 robust z-score 0.439; G2 cells, % of GMNN control 6.06.
For UBE2V1 [SID160731868], the entry reads G2 robust z-score 4.43; G2 cells, % of GMNN control 34.1.
For PHYHD1 [SID160762189] the deposit lists G2 robust z-score 0.0891; G2 cells, % of GMNN control 3.59.
For PHYHD1 [SID160762190] the deposit lists G2 robust z-score 4.71; G2 cells, % of GMNN control 36.1.
After knock-down of PHYHD1 [SID160762191], the record shows G2 robust z-score -0.983; G2 cells, % of GMNN control -3.95.
CYP2C9 [SID160751494] scored G2 robust z-score -0.204; G2 cells, % of GMNN control 1.53.
With knock-down of CYP2C9 [SID160751504], the screen gave G2 robust z-score 2.68; G2 cells, % of GMNN control 21.8.
Knock-down of CYP2C9 [SID160751516] resulted in: G2 robust z-score -0.392; G2 cells, % of GMNN control 0.207.
For GNB2 [SID160723783] the deposit lists G2 robust z-score 0.24; G2 cells, % of GMNN control 4.66.
Depletion of GNB2 [SID160723784] gave: G2 robust z-score -0.8; G2 cells, % of GMNN control -2.66.
Against GNB2 [SID160730986], the entry reads G2 robust z-score -0.646; G2 cells, % of GMNN control -1.58.
After knock-down of CNPY2 [SID160728191] the results were G2 robust z-score 0.31; G2 cells, % of GMNN control 5.15.
Depletion of CNPY2 [SID160728192] gave: G2 robust z-score -0.107; G2 cells, % of GMNN control 2.21.
For CNPY2 [SID160728193], the values are G2 robust z-score 1.99; G2 cells, % of GMNN control 17.
